Experimental findings from publication PMC9054013, “FCHO controls AP2’s initiating role in endocytosis through a PtdIns(4,5)P2-dependent switch” (Science Advances, 2022) are described below.

Chains of the proteins cited; added tags and fusions are not shown. Residues count along the entry.
UniProt P17427, residues 695-938: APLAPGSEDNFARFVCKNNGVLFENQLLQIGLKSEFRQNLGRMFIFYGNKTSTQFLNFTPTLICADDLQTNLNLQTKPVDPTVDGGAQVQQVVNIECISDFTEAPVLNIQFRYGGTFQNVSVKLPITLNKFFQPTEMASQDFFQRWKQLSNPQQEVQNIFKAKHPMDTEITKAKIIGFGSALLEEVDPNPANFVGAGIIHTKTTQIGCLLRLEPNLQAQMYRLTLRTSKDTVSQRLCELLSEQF

No constants are given. Whether binding was seen depends on the method and setting.

This assay addresses AP2 α-appendage (residues 695 to 938) (UniProt P17427). Put plainly: ITC; α-appendage or β2-appendage with C block peptides; 100 mM tris pH 7.4, 150 mM NaCl, 0.25 mM TCEP; 12°C; peptides 1 to 5 mM titrated; both purified.

B1: FCHO1 C peptide, LES to AAA (peptide, UniProt O14526 426-448)
peptide: QSEEQVSKNLFGPPAAAAFDHED
Take B1: the binding entry is recorded as “no binding (tested: weaker than 500 μM KD)”.
